# Experimental data: PubChem BioAssay AID504467 (National Center for Advancing Translational Sciences (NCATS), 2011)
# In all, about 330,000 compounds went through this assay and about 7,700 (2.3%) were called active. The inconclusive results got no clear call from the source; some entries with a clear call stand among them for comparison. Calls follow the shape of the dose curve; as a rule, active = well fitted inhibition curve with a large enough effect; inconclusive = small, poorly fitted or top-dose-only effect, or effect the other way; inactive = flat fitted curve, though single readings scatter. A potency beside an inconclusive call is a rough fit, not a confirmed value.
# Assay: qHTS screen for small molecules that inhibit ELG1-dependent DNA repair in human embryonic kidney (HEK293T) cells expressing luciferase-tagged ELG1; also: nearly all actives have a fitted effect of over 55% in size
# Conditions: HEK293T ELG1-luciferase reporter, luminescence, 16 h, DNA damage induced by 5-fluorouridine; activity change, negative = inhibition: at 46.1 µM (top of the series)
# In short: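 Luminescence from the luciferase reporter, measured 30 min after ONE-Glo reagent at room temperature, was the read-out. Beforehand, 2,000 cells per well were exposed for 16 hr at 37 °C to 5-fluorouridine together with compound or vehicle.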
# % is scaled to controls: 0 for no effect and ±100 for the full control effect; potency is read from the fitted curve at half-maximal effect.
Structure (SMILES),"activity change, negative = inhibition",Potency
COC(=O)c1c(NC(=O)CN2C(=O)NC3(CCc4ccccc4C3)C2=O)sc2c1CCCCC2 (centres undefined),inactive: 4.89%,–
CCOC(=O)c1cc(-c2ccccc2)n(CCC(=O)NC(C)CC)c1C (centres undefined),–,"inconclusive: 29.1 µM [inhibitor, partial curve, poor fit]"
CCCn1c(=O)c2c(nc3n2CCCN3CCc2ccccc2)n(C)c1=O,–,"inconclusive: 11.6 µM [inhibitor, partial curve, poor fit]"
CC(=O)Nc1ccc2nc(NC(=O)c3cccnc3)sc2c1,–,"inconclusive: 18.3 µM [activator, partial curve]"
O=C(NCC1COc2ccccc2O1)c1cccc(S(=O)(=O)N2CCCCC2)c1 (centres undefined),–,"inconclusive: 35.5 µM [inhibitor, single point]"
COCCOC(=O)c1c(C)nc(SCC(=O)Nc2cccc3ccccc23)c(C#N)c1-c1ccco1,–,active: 13 µM
CCOc1ccc(CN(Cc2ccco2)C(c2cccs2)c2nnnn2C(C)(C)C)cc1 (centres undefined),–,"inconclusive: 29.1 µM [inhibitor, single point]"
CCOC(=O)Cc1csc(NC(=O)c2sc3nc4cc(C)ccc4cc3c2N)n1,–,"inconclusive: 29.1 µM [activator, single point]"
CCOC(=O)c1ccc(NC(=O)[C@@H](NC(N)=O)C(C)C)cc1,–,"inconclusive: 23.1 µM [activator, partial curve, poor fit]"
CCCCN(C)C1CCN(C(=S)Nc2cccc(OC)c2)CC1,inactive: 1.55%,–
CC(C)(C)OC(=O)C[C@H]1C/C=C\C[C@H](CC(=O)N[C@H](CO)Cc2ccccc2)C(=O)N[C@@H](Cc2ccccc2)COC1=O,–,"inconclusive: 20.6 µM [inhibitor, single point]"
COCCCNC(=O)C1CCC(CNS(=O)(=O)c2ccc(Cl)cc2)CC1 (centres undefined),inactive: 3.02%,–
COC(=O)Cc1c(C)nc2nc(-c3ccc(OC)cc3)[nH]n2c1=O,inactive: 18.5%,–
Clc1ncnc2scc(C3COc4ccccc4O3)c12 (centres undefined),–,"inconclusive: 29.1 µM [inhibitor, single point]"
CCOC(=O)Nc1ccc2c(COC(=O)CNS(=O)(=O)c3ccc(NC(C)=O)cc3)cc(=O)oc2c1,–,"inconclusive: 18.3 µM [activator, partial curve, poor fit]"
COc1ccc(-c2cnnc(N/N=C/c3ccc(O)cc3)n2)cc1,–,"inconclusive: 9.2 µM [activator, partial curve]"
O=C(Nc1nnc(-c2ccccc2SCc2ccccc2)s1)Nc1ccccc1F,inactive: 21.1%,–
CCOc1ccc(-c2nnc3n2N=C(c2ccc(OC)cc2)CS3)cc1,–,"inconclusive: 6.51 µM [inhibitor, full curve, poor fit]"
CCS(=O)(=O)c1ccc2oc(SCC(=O)N3c4ccccc4CC3C)nc2c1 (centres undefined),–,active: 23.1 µM
Oc1ccc(/C=N/N2CCCCC2)c(O)c1O,inactive: -7.91%,–
O=C(O)CCNS(=O)(=O)c1ccc2c(c1)OCCCO2,inactive: 3.14%,–
Cc1ccc(-c2ccc3nnc(SCC(N)=O)n3n2)cc1,–,"inconclusive: 29.1 µM [activator, single point]"
Cc1cc(Cl)ccc1OCC(=O)N/N=C1\CCCc2ccccc21,inactive: -7.77%,–

Structure (SMILES),"activity change, negative = inhibition",Potency
O=C(CCn1c(=O)sc2ccccc21)NC1CCCCC1,inactive: 0%,–
C/C(=C\C(=O)Nc1cc(C)on1)c1ccccc1,–,"inconclusive: 16.4 µM [activator, partial curve]"
Cc1cn(CCC(=O)Nc2ccc(N3CCOCC3)cc2)c2ccccc12,–,"inconclusive: 14.6 µM [activator, partial curve]"
Cc1noc(-c2ccc(Cl)cc2)c1C(=O)O/N=C(\N)c1ccc(C(C)(C)C)cc1,–,"inconclusive: 29.1 µM [inhibitor, single point]"
Cc1ccc(O)c(-n2nc3ccccc3n2)c1,–,"inconclusive: 18.3 µM [activator, partial curve]"
O=C(NCC1OCCc2ccccc21)c1ccc(NC(=O)c2ccc(Cl)cc2)cc1 (centres undefined),–,"inconclusive: 2.91 µM [inhibitor, full curve]"
CCCCCCN1C=C/C(=C\C=C(C#N)C#N)c2ccccc21,–,"inconclusive: 7.31 µM [inhibitor, partial curve, poor fit]"
COc1ccc(-n2c(C)nn(CCOc3ccccc3)c2=O)cc1,–,"inconclusive: 18.3 µM [activator, single point]"
O=[N+]([O-])c1ccccc1CSc1nc2ccccc2o1,–,"inconclusive: 20.6 µM [activator, partial curve]"
CC(=NCCc1c(C)[nH]c2ccc(OCc3ccccc3)cc12)C1=C(O)CC(c2ccccc2)CC1=O (centres undefined),–,"inconclusive: 23.1 µM [inhibitor, single point]"
CC(C)c1ccc(NC(=O)C(c2ccccc2)N2CCOCC2)cc1 (centres undefined),–,"inconclusive: 11.6 µM [activator, partial curve, poor fit]"
CN(CC1COc2ccccc2O1)C(=O)c1ccc(Cl)c(S(=O)(=O)N2CCCCCC2)c1 (centres undefined),–,"inconclusive: 20.6 µM [inhibitor, single point]"
C[C@H](NC(=O)c1nc[nH]c1C(=O)OCc1ccccc1)c1ccccc1,–,"inconclusive: 23.1 µM [inhibitor, single point]"
CCOC(=O)CC(=O)CSc1nccc(-c2cccnc2)n1,–,"inconclusive: 8.2 µM [inhibitor, partial curve]"
COc1ccc(NS(=O)(=O)c2cc(NC(=O)c3cccs3)ccc2N2CCOCC2)cc1,–,"inconclusive: 29.1 µM [inhibitor, single point]"
Cc1ccc(-n2ncc3c(=O)n(CC(=O)N4CCCc5ccccc54)cnc32)cc1C,–,active: 23.1 µM
O=C(NCC(=O)N1CCCC(C(F)(F)F)C1)c1ccc(Oc2ccccc2)cc1 (centres undefined),–,"inconclusive: 9.2 µM [activator, partial curve]"
CCNC(=O)N1CCC(c2nc3ccccc3s2)CC1,inactive: 1.73%,–
CCc1ccc(NC(=O)[C@H](Cc2c[nH]c3ccccc23)NC(=O)[C@@H]2Cc3ccccc3CN2)cc1,inactive: 7.46%,–
CCOc1ccc(/C(O)=C2\C(=O)C(=O)N(c3ccc(OC)cc3)C2c2ccccc2[N+](=O)[O-])cc1 (centres undefined),–,"inconclusive: 2.06 µM [activator, partial curve]"
COc1cccc(CN2CCN(C(c3ccccc3)c3ccccc3)CC2)c1O,–,"inconclusive: 25.9 µM [inhibitor, partial curve, poor fit]"
Cc1cc(C)c(S(=O)(=O)c2ccccc2)c(OC(=O)c2c(Cl)cc(Cl)cc2Cl)n1,inactive: 3.48%,–
Cc1cc(C(=O)c2ccc(C(C)(C)C)cc2)c(NC(=O)CCl)s1,inactive: -10.6%,–

Structure (SMILES),"activity change, negative = inhibition",Potency
O=C(O)CCNc1ccc(NCCC(=O)O)c2c1C(=O)c1ccccc1C2=O,inactive: -29.9%,–
Cc1nnc(SCC(=O)Nc2ccccc2C(=O)NC2CC2)s1,inactive: 21.5%,–
Cc1nn(C)cc1S(=O)(=O)N1CCN(c2ccccc2F)CC1,inactive: -12%,–
CCOc1ncccc1C(=O)Nc1cc(S(=O)(=O)N2CCCCC2)ccc1OC,inactive: -24.9%,–
Clc1cccc(Nc2ncnc3ccc(Br)cc23)c1,–,"inconclusive: 4.61 µM [inhibitor, partial curve, poor fit]"
O=C(O)CCCNc1cc(N2CCC3(CC2)OCCO3)c2noc3c2c1C(=O)c1ccccc1-3,–,"inconclusive: 7.08 µM [activator, partial curve, poor fit]"
CON(C)S(=O)(=O)NC(=O)C1=C(N2CCCC2)COC1=O,inactive: 1.63%,–
COc1ccccc1CNc1nc(=S)[nH]c2cc(OC)c(OC)cc12,–,"inconclusive: 8.2 µM [inhibitor, partial curve, poor fit]"
CCC(C)[C@H](NC(=O)N1CCCCC1)C(=O)OC (some centres undefined),inactive: 8.36%,–
CS(=O)(=O)c1ccc(C(=O)Nc2ccc(-c3nc4ccccc4[nH]3)cc2)cc1,–,"inconclusive: 5.8 µM [activator, partial curve]"
O=C(O)c1ccccc1SCc1cn2cc(Br)ccc2n1,–,"inconclusive: 29.1 µM [activator, single point]"
CC(C)OC(=O)CSc1nc2cccnc2n1-c1ccc(F)cc1,–,"inconclusive: 0.259 µM [inhibitor, single point]"
CCOc1ccccc1NC(=O)N1CCCC(c2nc3c(nnn3Cc3ccc(C)cc3)c(=O)[nH]2)C1 (centres undefined),–,"inconclusive: 29.1 µM [inhibitor, single point]"
Cc1cc(NC(=O)Cn2c(=O)n(Cc3ccccc3)c(=O)c3ccccc32)no1,inactive: 18.6%,–
Cc1ccc(S(=O)(=O)CCC(=O)OCc2nnc(-c3ccccc3Br)o2)cc1,inactive: 18%,–
CN(C)CCCNC(=O)C[C@H]1C[C@H](C(=O)N2CCOCC2)[C@@]2(C)c3[nH]c4cc(CCC(=O)N(C)C)ccc4c3CCN2C1=O,inactive: 20.7%,–
Cc1c(C(=O)NCc2cccnc2)oc2ccc(S(=O)(=O)N3CCC4(CC3)OCCO4)cc12,–,active: 23.1 µM
O=c1oc(-c2ccco2)nc2sc3c(c12)CCCCC3,–,"inconclusive: 20.6 µM [activator, partial curve]"
COc1cccc(C(=O)Oc2ccc(/C=N/Nc3ccc(C(=O)O)cc3)cc2OC)c1,–,"inconclusive: 2.06 µM [activator, full curve]"
O=C(c1ccccc1)c1nc2c(n1O)CCCCC2,–,"inconclusive: 25.9 µM [activator, single point]"
O=C(O)c1ccccc1C(=O)Nc1ccc(Oc2ccccc2)cc1,–,"inconclusive: 16.4 µM [activator, partial curve, poor fit]"
O=C1/C(=C\c2cccnc2)SC(=S)N1C1CCS(=O)(=O)C1 (centres undefined),–,"inconclusive: 29.1 µM [inhibitor, single point]"
COc1ccc(CNC(=O)c2oc3ccc(S(=O)(=O)N4CCOCC4)cc3c2C)cc1,–,"inconclusive: 18.3 µM [inhibitor, single point]"

# Laid out differently: 4 of the compounds above.
Structure (SMILES)	activity change, negative = inhibition	Potency
Cc1c(C(=O)NCc2cccnc2)oc2ccc(S(=O)(=O)N3CCC4(CC3)OCCO4)cc12	–	active: 23.1 µM
O=c1oc(-c2ccco2)nc2sc3c(c12)CCCCC3	–	inconclusive: 20.6 µM [activator, partial curve]
COc1cccc(C(=O)Oc2ccc(/C=N/Nc3ccc(C(=O)O)cc3)cc2OC)c1	–	inconclusive: 2.06 µM [activator, full curve]
O=C(c1ccccc1)c1nc2c(n1O)CCCCC2	–	inconclusive: 25.9 µM [activator, single point]
